The list is a part of this screen's results and no random one: it gathers tests that were run many times, whatever their T/C, doses with no T/C, and many T/C values between a quarter and a half above the control. Other doses and runs of a compound stand elsewhere. T/C gives the treated animals as a percentage of the vehicle group. Some entries give survivors of the animals treated and no T/C: the source holds a T/C of zero for them, seemingly a mark for toxic or unscored doses. Some doses without a T/C left all or most animals alive at the check, yet need not have been tolerated: survival well below the control is almost never listed, so the zero probably covers shortened survival too. Counts of survivors are from the toxicity check (mostly the fifth day) where no day follows; animals may have died later. Schedule codes are those of the source, taken here to give the interval after Q, in days (D) or hours (H), and the number of doses after X. Some molecules as drawn cover several salts, stereoisomers or complexes of the source; a dose is that of the sample tested. Some doses were run more than once; the values are given in rising order. For survival time, this PubChem deposit counts one and a half times the control or more as active, and values a quarter to a half above the control carry no call in these data; other NCI protocols may use other cut-offs. Some T/C values carry the count of animals alive at the toxicity check (mostly the fifth day); without a count, all were alive then.
Tested on: P388 leukemia ip, CD2F1 mice, survival T/C
Test: NCI In Vivo Anticancer Drug Screen. Data for tumor model P388 Leukemia (intraperitoneal) in CD2F1 (CDF1) mice
Conditions: T/C endpoint: median survival time, higher T/C = longer survival
[1] = dose: 100.0 mg/kg/injection, schedule: Q04DX003 (ip), vehicle: suspension in saline
[2] = dose: 200.0 mg/kg/injection, schedule: Q01DX005 (ip), vehicle: saline
[3] = dose: 100.0 mg/kg/injection, schedule: Q01DX005 (ip), vehicle: Klucel (hydroxypropylcellulose) (HPC)
[4] = dose: 100.0 mg/kg/injection, schedule: Q01DX009 (ip), vehicle: Klucel (hydroxypropylcellulose) (HPC)
[5] = dose: 200.0 mg/kg/injection, schedule: Q01DX009 (ip), vehicle: Klucel (hydroxypropylcellulose) (HPC)
[6] = dose: 50.0 mg/kg/injection, schedule: Q01DX009 (ip), vehicle: saline
[7] = dose: 100.0 mg/kg/injection, schedule: Q01DX009 (ip), vehicle: saline
[8] = dose: 200.0 mg/kg/injection, schedule: Q01DX009 (ip), vehicle: saline with Tween-80
[9] = dose: 200.0 mg/kg/injection, schedule: Q01DX005 (ip), vehicle: Klucel (hydroxypropylcellulose) (HPC)
[10] = dose: 200.0 mg/kg/injection, schedule: Q01DX005 (ip), vehicle: saline with Tween-80
[11] = dose: 120.0 mg/kg/injection, schedule: Q01DX005 (ip), vehicle: saline with Tween-80
[12] = dose: 50.0 mg/kg/injection, schedule: Q01DX005 (ip), vehicle: saline with Tween-80
[13] = dose: 100.0 mg/kg/injection, schedule: Q01DX005 (ip), vehicle: saline with Tween-80

C(=C/c1cc2ccc(C3=NCCN3)cc2o1)/c1cc2cc(C3=NCCN3)ccc2[nH]1
T/C (dose: 12.5 mg/kg/injection, schedule: Q04DX003 (ip), vehicle: suspension in saline): 131 % of control | T/C (dose: 25.0 mg/kg/injection, schedule: Q04DX003 (ip), vehicle: suspension in saline): 125 % of control | T/C (dose: 50.0 mg/kg/injection, schedule: Q04DX003 (ip), vehicle: suspension in saline): 134 % of control | T/C [1]: 143 % of control [4 of 6 alive] | survivor count [1]: 1 of 6 | survivor count (dose: 400.0 mg/kg/injection, schedule: Q04DX003 (ip), vehicle: suspension in saline): 0 of 6

CS(=O)(=O)OCC(O)C(O)CI (stereo not drawn)
survivor count [2]: 6 of 6

[O-]c1n[n+](-c2ccccc2)no1
survivor count (dose: 50.0 mg/kg/injection, schedule: Q01DX009 (ip), vehicle: other): 4 of 6 | survivor count (dose: 100.0 mg/kg/injection, schedule: Q01DX009 (ip), vehicle: other): 0 of 6

CC1S(=O)(=O)OCCOS1(=O)=O
T/C (dose: 6.25 mg/kg/injection, schedule: Q01DX005 (ip), vehicle: Klucel (hydroxypropylcellulose) (HPC)): 128 % of control | T/C (dose: 12.5 mg/kg/injection, schedule: Q01DX005 (ip), vehicle: Klucel (hydroxypropylcellulose) (HPC)): 147 % of control | survivor count [3]: 0 of 6 and 3 of 6

O=C(Nc1ccccc1C1=NCCN1)Nc1ccccc1C1=NCCN1
survivor count [2]: 2 of 6

NC(CSc1nc2ccccn2c1[N+](=O)[O-])C(=O)O (stereo not drawn)
survivor count [4]: 3 of 6 | survivor count [5]: 0 of 6

O=C1c2cccc([N+](=O)[O-])c2C(=O)N1CC[P+](c1ccccc1)(c1ccccc1)c1ccccc1
survivor count (dose: 200.0 mg/kg/injection, schedule: Q01DX009 (ip), vehicle: water): 0 of 6 | survivor count (dose: 400.0 mg/kg/injection, schedule: Q01DX009 (ip), vehicle: water): 0 of 6

S=C(N/N=C/c1ccccn1)N/N=C/c1ccccn1
T/C (dose: 6.25 mg/kg/injection, schedule: Q01DX009 (ip), vehicle: distilled water + Tween-80): 131 % of control [5 of 6 alive] | T/C (dose: 12.5 mg/kg/injection, schedule: Q01DX009 (ip), vehicle: distilled water + Tween-80): 149 % of control | T/C (dose: 25.0 mg/kg/injection, schedule: Q01DX009 (ip), vehicle: distilled water + Tween-80): 146 % of control | survivor count (dose: 50.0 mg/kg/injection, schedule: Q01DX009 (ip), vehicle: distilled water + Tween-80): 1 of 6 and 5 of 6 | T/C [6]: 128 and 138 % of control | survivor count (dose: 100.0 mg/kg/injection, schedule: Q01DX009 (ip), vehicle: distilled water + Tween-80): 0 of 6 and 1 of 6 | survivor count [7]: 4 of 6 | survivor count (dose: 200.0 mg/kg/injection, schedule: Q01DX009 (ip), vehicle: distilled water + Tween-80): 0 of 6 | survivor count (dose: 400.0 mg/kg/injection, schedule: Q01DX009 (ip), vehicle: distilled water + Tween-80): 0 of 6

O=C1CSC(=O)N1c1cccc(C(F)(F)F)c1
survivor count [8]: 5 of 6

CCOC(=O)Nc1cc2c(c(N)n1)N=C(CN(C)c1ccccc1)CN2
T/C (dose: 12.5 mg/kg/injection, schedule: Q01DX009 (ip), vehicle: Klucel (hydroxypropylcellulose) (HPC)): 126 % of control | survivor count (dose: 50.0 mg/kg/injection, schedule: Q01DX009 (ip), vehicle: Klucel (hydroxypropylcellulose) (HPC)): 6 of 6 | survivor count (dose: 150.0 mg/kg/injection, schedule: Q01DX001 (ip), vehicle: Klucel (hydroxypropylcellulose) (HPC)): 3 of 10

CCCN(C)C(=O)N(CCCl)N=O
T/C (dose: 4.0 mg/kg/injection, schedule: Q01DX001 (ip), vehicle: water): 127 % of control | T/C (dose: 8.0 mg/kg/injection, schedule: Q01DX001 (ip), vehicle: water): 132 % of control | T/C (dose: 64.0 mg/kg/injection, schedule: Q01DX001 (ip), vehicle: water): 125 % of control

CC[n+]1ccc(Nc2ccc(/C=C/c3ccc4cc(Nc5cc[n+](CC)cc5)ccc4[n+]3CC)cc2)cc1
T/C (dose: 5.0 mg/kg/injection, schedule: Q04DX003 (ip), vehicle: saline sonified): 127 % of control | T/C (dose: 5.0 mg/kg/injection, schedule: Q04DX003 (ip), vehicle: saline with Tween-80): 140 % of control | T/C (dose: 7.5 mg/kg/injection, schedule: Q04DX003 (ip), vehicle: saline sonified): 127 % of control | T/C (dose: 10.0 mg/kg/injection, schedule: Q04DX003 (ip), vehicle: saline with Tween-80): 131 % of control | survivor count (dose: 20.0 mg/kg/injection, schedule: Q04DX003 (ip), vehicle: saline with Tween-80): 2 of 6 | survivor count (dose: 50.0 mg/kg/injection, schedule: Q04DX003 (ip), vehicle: saline with Tween-80): 0 of 6 | survivor count (dose: 100.0 mg/kg/injection, schedule: Q04DX003 (ip), vehicle: saline with Tween-80): 0 of 6 | survivor count (dose: 200.0 mg/kg/injection, schedule: Q04DX003 (ip), vehicle: saline with Tween-80): 0 of 6

COc1ccc(C(O)(CCN2CCOCC2)c2ccc3c(c2)OCO3)cc1 (stereo not drawn)
survivor count [9]: 6 of 6

N#Cc1nc(CC(=O)c2ccc(Cl)cc2Cl)c(CC(=O)c2ccc(Cl)cc2Cl)nc1C#N
survivor count (dose: 240.0 mg/kg/injection, schedule: Q01DX005 (ip), vehicle: saline): 1 of 6

CC1CN1c1nc(N2CC2C)nc(N2CC2C)n1 (stereo not drawn)
survivor count (dose: 6.25 mg/kg/injection, schedule: Q01DX009 (ip), vehicle: saline with Tween-80): 3 of 6 | survivor count (dose: 12.5 mg/kg/injection, schedule: Q01DX009 (ip), vehicle: saline with Tween-80): 0 of 6 | survivor count (dose: 25.0 mg/kg/injection, schedule: Q01DX009 (ip), vehicle: saline with Tween-80): 0 of 6

CC(C)Sc1nc(NC(=O)N(CCCl)N=O)cc(=O)[nH]1
T/C (dose: 25.0 mg/kg/injection, schedule: Q01DX005 (ip), vehicle: Klucel (hydroxypropylcellulose) (HPC)): 148 % of control | survivor count [3]: 6 of 6 | survivor count [9]: 5 of 6

Cc1csc(/N=C2\N/C(=N\c3nc(C)cs3)c3ccccc32)n1
survivor count [8]: 5 of 6

O=C1CC2(CCCCC2)C(=O)N1c1cc([N+](=O)[O-])ccn1
survivor count [4]: 0 of 6 | survivor count [5]: 0 of 6

CCN(C(=S)Nc1cccc(C(F)(F)F)c1)c1ccccc1
survivor count [5]: 2 of 6

c1cc2ccc3ccc[n+]4c3c2[n+](c1)CC4
survivor count [7]: 3 of 6 | survivor count (dose: 200.0 mg/kg/injection, schedule: Q01DX009 (ip), vehicle: saline): 0 of 6 | survivor count (dose: 400.0 mg/kg/injection, schedule: Q01DX009 (ip), vehicle: saline): 0 of 6

COc1ccc(/C=C/c2ccnnc2)cc1
survivor count [7]: 5 of 6

CC(N)P(=O)(O)O (stereo not drawn)
survivor count (dose: 25.0 mg/kg/injection, schedule: Q01DX009 (ip), vehicle: saline): 5 of 6 | survivor count [6]: 6 of 6

N#CCS(=O)(=O)c1cccc[n+]1[O-]
T/C [10]: 132 % of control | survivor count (dose: 400.0 mg/kg/injection, schedule: Q01DX005 (ip), vehicle: saline with Tween-80): 3 of 6

O=c1c2cc(F)ccc2nnn1-c1ccccc1
survivor count [7]: 6 of 6

O=S(=O)(CCCCl)SCCCCl
survivor count [11]: 0 of 6 | survivor count (dose: 240.0 mg/kg/injection, schedule: Q01DX005 (ip), vehicle: saline with Tween-80): 0 of 6

N#COc1ccc(-c2ccccc2)cc1
survivor count [11]: 6 of 6

C#CC(=O)C1OC2OC(C)(C)OC2C2OC(C)(C)OC12 (stereo not drawn)
survivor count [12]: 0 of 6 | survivor count [13]: 0 of 6 | survivor count [10]: 0 of 6

CCCCCCCCCCCCCCCCCCOCC(COP(=O)([O-])OCC[N+](C)(C)C)OC (stereo not drawn)
T/C (dose: 25.0 mg/kg/injection, schedule: Q01DX005 (ip), vehicle: saline with Tween-80): 125 % of control | T/C [12]: 142 and 147 % of control | survivor count [6]: 6 of 6 | survivor count [13]: 0 of 5 | survivor count [10]: 0 of 5
